{"source": "patent US20260317388A1", "about": "“SELECTIVE NUCLEAR BLOCKADE FOR THE TREATMENT OF SEPSIS” (priority 2023, published 2026)", "key": {"[1]": {"system": "8 genes encoding mediators of innate immunity and inflammation (lungs)", "assay": "Gene expression profiling by qRT PCR in lungs", "format": "in vivo, C57Bl/6J mice", "conditions": "NGS and qRT PCR"}, "[2]": {"system": "cytokines IL-6, IL-10, TNF-α, and IFN-γ", "assay": "Cytokine assay in blood plasma (cytometric bead array)", "format": "in vivo, C57Bl/6J mice", "conditions": "CM-challenged mice, 6 h"}, "[3]": {"system": "FOSL1 bound to cJun (AP1 protein complex)", "assay": "Nuclear translocation of FOSL1 bound to cJun during sepsis", "format": "in vivo"}, "[4]": {"system": "two major target organs (lungs and kidneys)", "assay": "Genes controlled cumulatively in lungs and kidneys in sepsis (NGS)", "format": "in vivo, C57Bl/6J mice"}}, "note": "Entries after “also recorded” stand apart in the source; their conditions may differ. Not every detail of the peptide structures is certain; ends, links or a residue may be inferred. Positions of bridges follow the written chain, without caps; N, C: chain ends. Residues, ends and D or L forms follow the SMILES beside them."}
{"smiles": "CSCC[C@@H]1NC(=O)[C@H](CC(C)C)NC(=O)[C@H](CCCCN)NC(=O)[C@H](CCC(N)=O)NC(=O)[C@H](CCCNC(=N)N)NC(=O)[C@H](CCCCN)NC(=O)[C@H](CCCNC(=N)N)NC(=O)[C@H](CCC(N)=O)NC(=O)[C@H](C(C)C)NC(=O)[C@@H](NC(=O)[C@@H]2CCCN2C(=O)[C@H](C)NC(=O)[C@H](CC(C)C)NC(=O)[C@H](CC(C)C)NC(=O)[C@H](C)NC(=O)[C@H](CC(C)C)NC(=O)[C@H](CC(C)C)NC(=O)[C@@H](NC(=O)[C@H](C)NC(=O)[C@@H]2CCCN2C(=O)[C@H](CC(C)C)NC(=O)[C@H](CC(C)C)NC(=O)[C@H](C)NC(=O)[C@@H](NC(=O)[C@H](C)NC(=O)[C@H](C)N)C(C)C)C(C)C)CSSC[C@@H](C(=O)O)NC(=O)[C@@H]2CCCN2C1=O", "note": "[cSN50.1] (H-AAVALLPAVLLALLAPCVQRKRQKLMPC-OH; disulfide 17-28)", "values": [{"measurement": "genes suppressed of the 8 analyzed", "setting": "[1]; 6 h", "result": 7, "unit": "genes"}, {"measurement": "IL-6 gene expression after NTCI", "setting": "[1]; 6 h, listed as NTCI", "result": "remained elevated; also recorded: remained increased"}, {"measurement": "expression of the representative cytokine, chemokine and ISG15 genes, lungs", "setting": "[1]; sepsis", "result": "suppressed their expression"}, {"measurement": "plasma IL-6 protein level", "setting": "[2]", "result": "remained elevated"}, {"measurement": "plasma concentration of IL-10, TNFα, and IFN-γ", "setting": "[2]", "result": "significantly reduced"}, {"measurement": "nuclear translocation of FOSL1 bound to cJun", "setting": "[3]", "result": "inhibited nuclear translocation"}, {"measurement": "Oxtr gene expression", "setting": "[4]", "result": "partially restored"}, {"measurement": "effect on Csf3 gene expression, both organs", "setting": "[4]", "result": "not suppressed"}, {"measurement": "expression of the genes encoding fibrinogen chains and Factor X", "setting": "[4]", "result": "reduced the expression"}, {"measurement": "genes controlled cumulatively in the two major target organs", "setting": "[4]", "result": "over 4,200 genes"}, {"measurement": "β-Klotho gene expression", "setting": "[4]", "result": "increased"}, {"measurement": "activation of 19 genes encoding mediators of inflammation in both organs", "setting": "[4]; 6 h", "result": "dramatically counteracted the activation"}]}
